Test results published in patent publication US20110305629A1.
Results are given in words; binding and its absence hold for the method and conditions named. Some results given as binding are weak or reduced against the parent protein; the word gives no strength.

Sequences of proteins named here, by UniProt entry; tags and fusion partners are left off. A change or cut given only in a name is not applied to a line headed by its entry.
UniProt P43406: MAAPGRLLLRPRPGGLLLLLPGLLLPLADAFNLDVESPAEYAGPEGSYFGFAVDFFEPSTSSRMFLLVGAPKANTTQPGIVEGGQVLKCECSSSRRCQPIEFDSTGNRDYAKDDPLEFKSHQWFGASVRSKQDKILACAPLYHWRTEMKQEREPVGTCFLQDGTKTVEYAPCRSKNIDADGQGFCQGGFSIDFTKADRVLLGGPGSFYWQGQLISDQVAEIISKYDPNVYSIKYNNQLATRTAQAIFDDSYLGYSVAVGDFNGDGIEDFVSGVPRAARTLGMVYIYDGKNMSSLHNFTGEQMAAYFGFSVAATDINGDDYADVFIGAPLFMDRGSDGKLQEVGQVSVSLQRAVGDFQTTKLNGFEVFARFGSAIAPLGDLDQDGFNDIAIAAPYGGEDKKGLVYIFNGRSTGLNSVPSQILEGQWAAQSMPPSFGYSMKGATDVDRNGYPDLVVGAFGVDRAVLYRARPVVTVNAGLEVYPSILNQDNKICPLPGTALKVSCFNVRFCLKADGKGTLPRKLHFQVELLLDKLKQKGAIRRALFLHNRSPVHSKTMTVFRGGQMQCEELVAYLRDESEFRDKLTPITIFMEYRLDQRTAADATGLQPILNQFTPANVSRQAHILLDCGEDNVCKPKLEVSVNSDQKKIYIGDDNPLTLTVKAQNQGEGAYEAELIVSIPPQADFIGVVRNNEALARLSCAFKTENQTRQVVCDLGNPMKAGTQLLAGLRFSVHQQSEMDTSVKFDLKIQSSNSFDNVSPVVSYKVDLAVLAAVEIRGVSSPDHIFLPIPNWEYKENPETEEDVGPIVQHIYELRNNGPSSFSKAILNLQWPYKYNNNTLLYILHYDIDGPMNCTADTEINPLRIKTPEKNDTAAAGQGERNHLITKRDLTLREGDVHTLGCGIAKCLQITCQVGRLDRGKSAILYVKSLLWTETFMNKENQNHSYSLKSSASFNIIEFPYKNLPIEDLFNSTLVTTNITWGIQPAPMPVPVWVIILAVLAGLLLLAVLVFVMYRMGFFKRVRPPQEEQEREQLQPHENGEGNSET
UniProt Q9Z0T9: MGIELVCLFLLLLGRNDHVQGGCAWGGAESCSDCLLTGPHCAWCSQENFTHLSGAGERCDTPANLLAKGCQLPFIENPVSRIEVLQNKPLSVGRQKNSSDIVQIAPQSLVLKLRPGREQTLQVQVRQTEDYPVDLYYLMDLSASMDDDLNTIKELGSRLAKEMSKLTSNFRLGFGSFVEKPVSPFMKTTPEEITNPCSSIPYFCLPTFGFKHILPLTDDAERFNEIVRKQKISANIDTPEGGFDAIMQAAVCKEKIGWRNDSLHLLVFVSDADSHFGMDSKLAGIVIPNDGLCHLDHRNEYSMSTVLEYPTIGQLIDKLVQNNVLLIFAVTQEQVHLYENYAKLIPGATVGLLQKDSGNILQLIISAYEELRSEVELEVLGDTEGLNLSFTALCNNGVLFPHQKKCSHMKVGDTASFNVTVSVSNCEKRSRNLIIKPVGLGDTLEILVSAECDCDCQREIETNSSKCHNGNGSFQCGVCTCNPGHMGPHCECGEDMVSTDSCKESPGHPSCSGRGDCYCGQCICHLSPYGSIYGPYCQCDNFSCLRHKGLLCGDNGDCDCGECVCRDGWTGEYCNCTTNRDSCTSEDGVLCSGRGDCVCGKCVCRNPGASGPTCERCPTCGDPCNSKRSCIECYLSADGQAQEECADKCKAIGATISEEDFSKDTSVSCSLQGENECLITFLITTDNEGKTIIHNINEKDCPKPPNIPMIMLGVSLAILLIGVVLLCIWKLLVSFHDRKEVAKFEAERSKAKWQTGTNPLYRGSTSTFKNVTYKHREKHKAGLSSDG

Key:
[1] = molecular target: T1, mouse αvβ6 integrin on cells (mouse) (UniProt P43406+Q9Z0T9); experiment: flow cytometry on FDCP1-β6 cells (FIG. 4)
[2] = molecular target: T1, mouse αvβ6 integrin on cells (mouse); experiment: flow cytometry on FDCP1-β6 cells, supernatants (FIG. 4)
[3] = molecular target: T1, mouse αvβ6 integrin on cells (mouse); experiment: flow cytometry on FDCP1-β6 cells, purified mAbs (FIG. 5)
[4] = molecular target: T1, mouse αvβ6 integrin on cells (mouse); experiment: flow cytometry on FDCP1-β6 cells, purified antibodies (FIG. 5)

binding [1]: binds
binding [2]: binds
binding [3]: binds
binding [4]: binds
B1: hu3G9 version 5 (H3/L5), pKJS168 and pKJS188 pairing (antibody, human IgG1, V domains shown)
VH: EVQLVESGGGLVQPGGSLRLSCAASGFTFSRYVMSWVRQAPGKGLEWVASISSGGRMYYPDTVKGRFTISRDNAKNSLYLQMNSLRAEDTAVYYCARGSIYDGYYVFPYWGQGTLVTVSS
VL: EIVLTQSPATLSLSPGERATLSCSASSSVSSSYLYWYQQKPGQAPRLLIYSTSNLASGIPARFSGSGSGTDFTLTISSLEPEDFAVYYCHQWSTYPPTFGGGTKVEIK
